Test results as given in PMC12040169 (PLOS Biology, 2025).
This is one part of the list.

Test system: T1, CTL2-GFP (C. trachomatis L2/434/Bu, GFP-expressing)
T1 construct: L2/434/Bu, GFP-expressing
Design: species or system HeLa; Intracellular C. trachomatis growth in HeLa cells, bulk GFP fluorescence relative to DMSO
Details: bulk GFP, single well; 28.5 h, 10 µM; inhibitor

Structure (SMILES)	% of control remaining [%]
O=C(COc1ccccc1)C(C(=O)c1ccccc1)=C1Nc2ccccc2N1 [CBK263725]	134.544
Cc1ccc(-c2csc3nc(SCC(=O)NCC4CCCO4)n(-c4ccccc4)c(=O)c23)cc1 (stereo not shown) [CBK265610]	112.081
CS(=O)(=O)N1CCN(c2ccccc2NC(=O)COc2ccccc2Cl)CC1 [CBK269250]	101.717
O=C(NC1CC1)c1ccsc1NC(=O)C1C2C=CC(C2)C1C(=O)O (stereo not shown) [CBK270322]	98.1527
COCCNC(=O)c1ccc(-n2ccnc2)c(-n2cccc2)c1 [CBK285369]	128.179
CC(C)COC(=O)N1CCC2(CC1)CC(=O)N(Cc1ccc(S(C)(=O)=O)cc1)C2=O [CBK155948]	137.788
CCOC(=O)CSc1nnc(NS(=O)(=O)c2cccc(Cl)c2C)s1 [CBK004669]	90.5164
CCOCCn1nc(C)cc1C(=O)NC(CC)c1cn2cccnc2n1 (stereo not shown) [CBK307377]	189.394
Nc1nc(CCN2CCOCC2=O)cs1 [CBK003792]	101.67
COCCNc1nc(-c2ccccc2)ccc1C(=O)Nc1cccc(OC)c1 [CBK105886]	171.206
COCCC(=O)N1C[C@@H]2C[C@H](C1)c1ccc(NC(=O)Nc3cccc(F)c3)c(=O)n1C2 [CBK289075]	128.964
CCOC(=O)C(NC(=O)C1CCC(=O)N1)c1cccc(C)c1C (stereo not shown) [CBK305472]	155.154
Cc1cccc(OCC2CCCN(C(=O)c3cn(C)cn3)C2)c1 (stereo not shown) [CBK307021]	124.37
O=C(NCCN1CCC(O)(c2ccc(F)cc2)CC1)C1CCCCC1 [CBK283165]	108.546
Cc1cc(N(C)Cc2ccccc2Br)nc(N)n1 [CBK297753]	70.2661
CC1(c2ccccc2)NC(NC2CCCCC2)=NC1=O (stereo not shown) [CBK008081]	149.602
Cc1nnc(SCc2nc(N)nc(Nc3ccccc3)n2)s1 [CBK266436]	118.038
CN1CCN(C(=S)SCC(=O)O)CC1 [CBK261549C]	102.716
O=C(NCCc1c[nH]c2ccc(Cl)cc12)c1cccnc1 [CBK159778]	95.6449
Cc1nn(-c2ncccn2)c2c1C(C(=O)c1ccccc1)CC(=O)N2 (stereo not shown) [CBK287890]	145.07
COc1cncc(-c2cnc(N)c(N3CCOCC3)n2)c1 [CBK063360]	171.27
COc1cccc(NC(=O)N2CCN3C(=O)[C@H](CC4CCCCC4)NC(=O)[C@H]3C2)c1 [CBK289615]	92.7843

Part of the list above, as comma-separated lines.
Structure (SMILES),% of control remaining [%]
COCCC(=O)N1C[C@@H]2C[C@H](C1)c1ccc(NC(=O)Nc3cccc(F)c3)c(=O)n1C2 [CBK289075],128.964
CCOC(=O)C(NC(=O)C1CCC(=O)N1)c1cccc(C)c1C (stereo not shown) [CBK305472],155.154
Cc1cccc(OCC2CCCN(C(=O)c3cn(C)cn3)C2)c1 (stereo not shown) [CBK307021],124.37
O=C(NCCN1CCC(O)(c2ccc(F)cc2)CC1)C1CCCCC1 [CBK283165],108.546
Cc1cc(N(C)Cc2ccccc2Br)nc(N)n1 [CBK297753],70.2661
CC1(c2ccccc2)NC(NC2CCCCC2)=NC1=O (stereo not shown) [CBK008081],149.602
